Test results as given in publication PMC7819943, “Rice protein-binding microarrays: a tool to detect cis-acting elements near promoter regions in rice”.
The list shows a part of the results.

Chains of the proteins cited; added tags and fusions are not shown.
UniProt Q0JBA9, entry or part of it: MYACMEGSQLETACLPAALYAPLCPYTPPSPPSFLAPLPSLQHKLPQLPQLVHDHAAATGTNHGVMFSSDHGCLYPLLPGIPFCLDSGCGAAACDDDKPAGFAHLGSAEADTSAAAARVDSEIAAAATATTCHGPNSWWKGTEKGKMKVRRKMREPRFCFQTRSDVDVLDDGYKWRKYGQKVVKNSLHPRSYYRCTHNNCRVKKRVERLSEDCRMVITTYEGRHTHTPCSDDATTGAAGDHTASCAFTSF

Each sequence was assayed against OsWRKY34 (Oryza sativa, UniProt Q0JBA9 1-250) (assay: protein-binding microarray (RPBM); PBS, 2% BSA, 51.3 ng/ul salmon testes DNA, 50 uM zinc acetate, 200 nM TF, 25 C, 1 h; high values mean tight binding). Conditions: protein: recombinant; tags: N-terminal polyhistidine and DsRed monomer fusion (pET32a); label: CyDye5-dUTP incorporated in the synthesized complementary strand; 3' TTTTT single-stranded linker to array surface; dsDNA, one strand shown.
Outline: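 Binding signal here means per-feature fluorescence intensity in arbitrary units. The values were read on an Axon 4000B scanner after a custom Agilent array, double-stranded by primer extension with Cy5-dUTP, was incubated with 200 nM protein at 25 °C for 1 h in PBS with 2% BSA, salmon testes DNA and 50 µM zinc acetate, then washed. The proteins were transcription factors with an N-terminal polyhistidine tag and DsRed, expressed in E. coli BL21-CodonPlus and purified on Ni–NTA.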
For “CTCGCCTCCGAATCCTGCGTCCTCTGGTCGGCGGCGCCGCCGGAGTCACCTAGTGCAG”, the binding signal was 9960 fluorescence intensity (a.u.).
In the case of “CTAGCTTCGCCATCCACATTCTTCTTGCTTCTTGCTCCTCCGGAGTCACCTAGTGCAG”, the binding signal is reported as 12700 fluorescence intensity (a.u.).
With “CGGTCCTCCTCGTCCGTGTTGTCGAGGCGGGGTAGAGGGGCGGAGTCACCTAGTGCAG” the binding signal was 10900 fluorescence intensity (a.u.).
“TGTATCATGCTCAGTTATCATTAGCTAGTTCATCATGTCACGGAGTCACCTAGTGCAG” was tested, and the binding signal was 8460 fluorescence intensity (a.u.).
For “TTCGCTTCTTCGTTTCTCGCATGCACACTTTTCGAACTAGCGGAGTCACCTAGTGCAG”, the binding signal was 11600 fluorescence intensity (a.u.).
With “TCCTTATTTTCTAATTCCGATTTCGAATTTCCATTATTTCCGGAGTCACCTAGTGCAG” the binding signal was 11700 fluorescence intensity (a.u.).
For “CCCTACTATTCCCAGATTCCCACCGGCCTCCGAGGCTCCGCGGAGTCACCTAGTGCAG”, the binding signal was 8030 fluorescence intensity (a.u.).
In the case of “CTCTCGTCGTCTTCATCTCTCTCCCCTCTCCTCCCTCCTCCGGAGTCACCTAGTGCAG”, the binding signal is reported as 8860 fluorescence intensity (a.u.).
For “CCCGTCCCAACTTGGTCACTCGTCTTCTCGCCCGAAAATCCGGAGTCACCTAGTGCAG”, the binding signal was 12700 fluorescence intensity (a.u.).
In the case of “GACAACTTTTTGTAACCATCCTTCTTTATTGCTCAGTTATCGGAGTCACCTAGTGCAG”, the binding signal is reported as 9150 fluorescence intensity (a.u.).
For “GGTGACTCAGTTTATACCAGATTAATGATCCATTACCTCTCGGAGTCACCTAGTGCAG”, the binding signal was 9250 fluorescence intensity (a.u.).
For “CTTCCATTTATTTCCAGTTATTCACATATGTCGTGCTAAGCGGAGTCACCTAGTGCAG”, the binding signal was 8360 fluorescence intensity (a.u.).
In the case of “CCCACCTGTCATCCTCACCCCACCCCATGCACCGAGTCCACGGAGTCACCTAGTGCAG”, the binding signal is reported as 9650 fluorescence intensity (a.u.).
With “CTCCCGTGCGTTGTGTTGTGCGTGCCAGATTGGTAGTAGTCGGAGTCACCTAGTGCAG” the binding signal was 9520 fluorescence intensity (a.u.).
“GGTGCAGATATGTTCAACTTCAGAGTTTTGTTTATGTTACCGGAGTCACCTAGTGCAG” was tested, and the binding signal was 9660 fluorescence intensity (a.u.).
“AATGTAAGTCATTCTAGCATTTCTCATTAACATCAATATGCGGAGTCACCTAGTGCAG” was tested, and the binding signal was 8430 fluorescence intensity (a.u.).
“GCTTATGTGTCAATTCATTTGTGTTAGGTGCTGAGATTTTCGGAGTCACCTAGTGCAG” was tested, and the binding signal was 9050 fluorescence intensity (a.u.).
With “ATCATGACATATTAAACTATTAACACAACTTATCTATTATCGGAGTCACCTAGTGCAG” the binding signal was 8850 fluorescence intensity (a.u.).
In the case of “AACCCATTTTTACTTATCATATTTGGTATACTAGCCAAGTCGGAGTCACCTAGTGCAG”, the binding signal is reported as 9430 fluorescence intensity (a.u.).
With “CCTTCCCATGCTGCTGTGATGTGTCATACGCCGCCGCCACCGGAGTCACCTAGTGCAG” the binding signal was 9920 fluorescence intensity (a.u.).
“ATTTCTTGAACCATACATTAATAAGATGCATATTATACCTCGGAGTCACCTAGTGCAG” was tested, and the binding signal was 8400 fluorescence intensity (a.u.).
With “ATTCATTTTGTAAGCCTAATTTCCTGCACAATTTATTACACGGAGTCACCTAGTGCAG” the binding signal was 8280 fluorescence intensity (a.u.).
“TTAATGAGTTCCTTTTGTTACCATTTGTACAGTTTGACCACGGAGTCACCTAGTGCAG” was tested, and the binding signal was 10100 fluorescence intensity (a.u.).
In the case of “GGAGCATGTTCAACCATTCATTGTTTTCTCTATTGCATAACGGAGTCACCTAGTGCAG”, the binding signal is reported as 8070 fluorescence intensity (a.u.).
In the case of “TTCCATACGCTGACCTTCTCATTTACCTCTTAGCTTATTACGGAGTCACCTAGTGCAG”, the binding signal is reported as 8230 fluorescence intensity (a.u.).
For “CTTTGGTTGCTGTCCCAACACGATAGCCCCTTGAGTGCTACGGAGTCACCTAGTGCAG”, the binding signal was 8140 fluorescence intensity (a.u.).
In the case of “TCCTGATATGTACCTTCCGATTTTATCTTTAATTTCTTTTCGGAGTCACCTAGTGCAG”, the binding signal is reported as 12000 fluorescence intensity (a.u.).
For “AAGTTATCTCATATATTTGAATTTCATTTTATTTTGTTACCGGAGTCACCTAGTGCAG”, the binding signal was 8140 fluorescence intensity (a.u.).
In the case of “GTTCATTCGTACGTTAGTTGTAAGTATTCTATTTGCTGCACGGAGTCACCTAGTGCAG”, the binding signal is reported as 9640 fluorescence intensity (a.u.).
With “TTACTTATACCACAGCTCGAATCCGTTCCAAACCAGGCCACGGAGTCACCTAGTGCAG” the binding signal was 9230 fluorescence intensity (a.u.).
For “CCGTGTCGTTGCCGGTGCGCATATGGCAGTTGCCGGTCTCCGGAGTCACCTAGTGCAG”, the binding signal was 9810 fluorescence intensity (a.u.).
For “CTTTTTACACATATTTGACCGTTCATCTTATTCAAAAACTCGGAGTCACCTAGTGCAG”, the binding signal was 8160 fluorescence intensity (a.u.).
With “CTCATTCCTCATTATTTCTATATTCCCTCACACTATTTATCGGAGTCACCTAGTGCAG” the binding signal was 8580 fluorescence intensity (a.u.).
In the case of “CTGGTTTTACCGTTCATCTTTTTACCTAGATAACTTCTTGCGGAGTCACCTAGTGCAG”, the binding signal is reported as 8330 fluorescence intensity (a.u.).
For “TTCTTTTACACGGGTCCAACTTATTCATACATGTCACTGCCGGAGTCACCTAGTGCAG”, the binding signal was 8960 fluorescence intensity (a.u.).
For “TTTCCTCTGGATCCTGGCATTTTGCATTGTCGTTTGCCGTCGGAGTCACCTAGTGCAG”, the binding signal was 8630 fluorescence intensity (a.u.).
“CCTACTTTTTCAGTTTTGTTTATTTGATCCCGTTTTTTAACGGAGTCACCTAGTGCAG” was tested, and the binding signal was 8250 fluorescence intensity (a.u.).
In the case of “GGTTCTCGTGCTATTGTTCTCTACTGTTTTTCCTAAATTTCGGAGTCACCTAGTGCAG”, the binding signal is reported as 8450 fluorescence intensity (a.u.).
For “CTTGACTTCTTATTCTATATGCACTCAATATCTTCAAGTTCGGAGTCACCTAGTGCAG”, the binding signal was 8120 fluorescence intensity (a.u.).
In the case of “GTAATTTATTGTCTATTATGGTTTTTCTTAATTGCTTTTTCGGAGTCACCTAGTGCAG”, the binding signal is reported as 9890 fluorescence intensity (a.u.).
“ATCGTATTGGGTTCTTATATGGAAACTTCTTCCAATATTGCGGAGTCACCTAGTGCAG” was tested, and the binding signal was 8180 fluorescence intensity (a.u.).
For “CACCAGGACTTTATTGATTTGTGGCTATCCAAATGTTGGGCGGAGTCACCTAGTGCAG”, the binding signal was 8210 fluorescence intensity (a.u.).
